The test concerns the target PD-L1 (bait of the IP-MS) (UniProt Q9NZQ7). The experiment in a line: affinity purification with mass spectrometry; immunoprecipitation of PD-L1 followed by mass spectrometry (IP-MS); cells, antibody and conditions not told.

Protein sequences, listed by entry. Tags and fused reporters are not part of them. Residues count along the entry.
UniProt Q9NZQ7, residues 19-290: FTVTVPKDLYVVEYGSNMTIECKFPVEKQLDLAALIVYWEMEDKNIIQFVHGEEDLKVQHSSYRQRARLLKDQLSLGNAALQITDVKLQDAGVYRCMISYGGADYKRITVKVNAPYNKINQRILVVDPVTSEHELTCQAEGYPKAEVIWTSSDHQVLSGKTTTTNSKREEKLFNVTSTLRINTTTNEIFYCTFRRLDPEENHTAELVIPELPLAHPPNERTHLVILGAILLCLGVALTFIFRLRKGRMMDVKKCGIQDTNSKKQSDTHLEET

Results are given in words; binding and its absence hold for the method and conditions named. Binding seen in cells or lysates may run through a third protein. A yes stands for co-enrichment or nearness to the bait. Other partners may have been found.

B1: flotillin-1 (FLOT1) (hit of the IP-MS) (protein, UniProt O75955 1-427)
chain: MFFTCGPNEAMVVSGFCRSPPVMVAGGRVFVLPCIQQIQRISLNTLTLNVKSEKVYTRHGVPISVTGIAQVKIQGQNKEMLAAACQMFLGKTEAEIAHIALETLEGHQRAIMAHMTVEEIYKDRQKFSEQVFKVASSDLVNMGISVVSYTLKDIHDDQDYLHSLGKARTAQVQKDARIGEAEAKRDAGIREAKAKQEKVSAQYLSEIEMAKAQRDYELKKAAYDIEVNTRRAQADLAYQLQVAKTKQQIEEQRVQVQVVERAQQVAVQEQEIARREKELEARVRKPAEAERYKLERLAEAEKSQLIMQAEAEAASVRMRGEAEAFAIGARARAEAEQMAKKAEAFQLYQEAAQLDMLLEKLPQVAEEISGPLTSANKITLVSSGSGTMGAAKVTGEVLDILTRLPESVERLTGVSISQVNHKPLRTA
As to B1, the binding result is “binds”.

The values are drawn from PMC10158545.
